{"sequences": {"note": "The chains behind the UniProt entries cited, without tags or fusion partners. Where a name states a change or a piece, a line headed by the entry shows the natural chain unless it says otherwise.", "UniProt O60568": "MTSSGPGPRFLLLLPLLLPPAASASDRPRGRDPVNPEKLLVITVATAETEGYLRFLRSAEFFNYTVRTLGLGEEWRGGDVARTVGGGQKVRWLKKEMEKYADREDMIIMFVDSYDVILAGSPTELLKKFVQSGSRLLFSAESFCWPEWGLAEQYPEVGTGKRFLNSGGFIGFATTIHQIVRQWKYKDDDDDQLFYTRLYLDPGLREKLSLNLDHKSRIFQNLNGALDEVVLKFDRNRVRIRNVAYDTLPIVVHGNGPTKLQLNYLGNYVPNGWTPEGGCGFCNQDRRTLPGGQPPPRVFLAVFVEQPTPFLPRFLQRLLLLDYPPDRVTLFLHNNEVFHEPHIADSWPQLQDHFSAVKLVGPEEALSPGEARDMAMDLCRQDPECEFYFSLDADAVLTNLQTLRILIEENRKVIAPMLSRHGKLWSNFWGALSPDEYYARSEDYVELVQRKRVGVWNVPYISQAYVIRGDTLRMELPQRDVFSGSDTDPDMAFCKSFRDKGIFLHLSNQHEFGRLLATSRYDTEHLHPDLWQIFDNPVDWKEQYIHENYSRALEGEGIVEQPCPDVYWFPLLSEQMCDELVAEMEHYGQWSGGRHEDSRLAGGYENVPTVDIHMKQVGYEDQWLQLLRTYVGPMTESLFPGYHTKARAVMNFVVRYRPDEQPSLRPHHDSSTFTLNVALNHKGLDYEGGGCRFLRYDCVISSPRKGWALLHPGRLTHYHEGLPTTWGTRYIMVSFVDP", "UniProt O14802": "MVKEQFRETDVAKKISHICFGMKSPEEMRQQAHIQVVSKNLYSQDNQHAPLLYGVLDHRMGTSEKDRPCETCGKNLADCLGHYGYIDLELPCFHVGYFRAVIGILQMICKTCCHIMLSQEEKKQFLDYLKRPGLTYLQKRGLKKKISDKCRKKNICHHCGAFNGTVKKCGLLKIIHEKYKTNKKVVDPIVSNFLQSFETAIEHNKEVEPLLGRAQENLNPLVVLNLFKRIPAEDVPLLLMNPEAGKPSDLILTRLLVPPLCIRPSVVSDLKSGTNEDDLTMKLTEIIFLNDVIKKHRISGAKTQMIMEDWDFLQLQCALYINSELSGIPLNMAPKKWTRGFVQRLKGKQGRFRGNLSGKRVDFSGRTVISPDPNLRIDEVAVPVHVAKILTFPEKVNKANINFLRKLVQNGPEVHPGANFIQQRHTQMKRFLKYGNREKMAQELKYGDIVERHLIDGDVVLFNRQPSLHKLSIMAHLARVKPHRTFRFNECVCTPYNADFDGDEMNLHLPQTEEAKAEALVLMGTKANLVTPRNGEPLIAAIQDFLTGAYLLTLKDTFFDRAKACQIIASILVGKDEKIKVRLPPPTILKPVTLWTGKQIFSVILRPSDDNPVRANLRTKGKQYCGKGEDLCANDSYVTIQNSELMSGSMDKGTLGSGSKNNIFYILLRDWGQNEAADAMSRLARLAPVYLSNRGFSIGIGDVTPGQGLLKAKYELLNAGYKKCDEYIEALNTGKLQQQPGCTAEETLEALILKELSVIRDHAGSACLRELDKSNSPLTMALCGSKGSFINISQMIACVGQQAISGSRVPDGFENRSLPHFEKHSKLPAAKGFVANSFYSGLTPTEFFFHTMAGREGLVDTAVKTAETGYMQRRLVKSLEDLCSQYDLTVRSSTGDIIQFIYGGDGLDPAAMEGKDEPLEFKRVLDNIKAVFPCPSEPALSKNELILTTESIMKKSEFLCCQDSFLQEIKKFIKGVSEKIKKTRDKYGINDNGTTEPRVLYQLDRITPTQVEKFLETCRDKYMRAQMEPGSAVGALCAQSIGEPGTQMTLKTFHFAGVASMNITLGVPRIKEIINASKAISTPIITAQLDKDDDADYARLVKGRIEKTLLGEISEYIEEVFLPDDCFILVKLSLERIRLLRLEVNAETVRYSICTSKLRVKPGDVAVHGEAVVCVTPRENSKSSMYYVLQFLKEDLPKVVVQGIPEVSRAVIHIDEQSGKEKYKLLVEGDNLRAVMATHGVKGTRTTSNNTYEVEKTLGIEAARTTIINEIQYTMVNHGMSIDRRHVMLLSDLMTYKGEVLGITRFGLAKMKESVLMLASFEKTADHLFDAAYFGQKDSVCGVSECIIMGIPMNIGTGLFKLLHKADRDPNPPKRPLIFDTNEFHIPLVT", "UniProt O15391, whole entry": "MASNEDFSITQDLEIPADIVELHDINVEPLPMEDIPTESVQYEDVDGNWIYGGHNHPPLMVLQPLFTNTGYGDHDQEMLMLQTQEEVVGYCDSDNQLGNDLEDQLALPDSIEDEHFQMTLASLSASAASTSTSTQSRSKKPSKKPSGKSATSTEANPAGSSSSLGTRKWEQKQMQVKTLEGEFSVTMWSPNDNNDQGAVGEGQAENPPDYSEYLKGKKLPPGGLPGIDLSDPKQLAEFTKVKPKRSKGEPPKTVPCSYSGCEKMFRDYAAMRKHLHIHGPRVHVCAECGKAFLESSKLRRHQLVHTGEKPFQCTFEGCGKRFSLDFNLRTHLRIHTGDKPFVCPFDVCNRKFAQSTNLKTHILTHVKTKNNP", "UniProt O60524": "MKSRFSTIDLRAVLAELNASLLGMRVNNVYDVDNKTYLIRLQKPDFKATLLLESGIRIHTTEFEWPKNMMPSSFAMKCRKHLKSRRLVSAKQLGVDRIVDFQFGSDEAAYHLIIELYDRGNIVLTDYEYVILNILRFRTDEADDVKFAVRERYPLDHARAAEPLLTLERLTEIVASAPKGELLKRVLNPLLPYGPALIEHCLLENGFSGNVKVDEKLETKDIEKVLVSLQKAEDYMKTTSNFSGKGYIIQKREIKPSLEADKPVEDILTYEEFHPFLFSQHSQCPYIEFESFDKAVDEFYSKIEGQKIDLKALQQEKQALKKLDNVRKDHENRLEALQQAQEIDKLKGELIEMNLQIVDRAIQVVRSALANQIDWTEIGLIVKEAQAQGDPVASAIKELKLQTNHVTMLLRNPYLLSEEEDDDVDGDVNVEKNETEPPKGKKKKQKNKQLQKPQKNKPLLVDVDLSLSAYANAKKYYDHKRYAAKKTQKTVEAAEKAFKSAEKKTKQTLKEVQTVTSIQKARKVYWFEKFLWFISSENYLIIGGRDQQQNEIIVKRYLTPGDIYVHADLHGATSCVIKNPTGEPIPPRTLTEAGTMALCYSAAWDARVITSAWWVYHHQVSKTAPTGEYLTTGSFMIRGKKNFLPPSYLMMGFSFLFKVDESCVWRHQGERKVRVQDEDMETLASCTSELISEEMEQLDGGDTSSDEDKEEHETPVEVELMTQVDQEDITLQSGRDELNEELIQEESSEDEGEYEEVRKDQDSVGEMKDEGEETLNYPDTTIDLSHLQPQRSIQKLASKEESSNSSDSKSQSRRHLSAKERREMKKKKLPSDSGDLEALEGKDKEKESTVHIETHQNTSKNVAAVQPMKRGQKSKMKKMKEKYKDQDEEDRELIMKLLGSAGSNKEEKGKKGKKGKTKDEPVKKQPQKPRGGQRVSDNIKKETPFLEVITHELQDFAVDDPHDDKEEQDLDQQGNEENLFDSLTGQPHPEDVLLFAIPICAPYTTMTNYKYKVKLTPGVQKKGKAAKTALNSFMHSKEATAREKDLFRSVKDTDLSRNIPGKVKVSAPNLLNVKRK", "UniProt O60318": "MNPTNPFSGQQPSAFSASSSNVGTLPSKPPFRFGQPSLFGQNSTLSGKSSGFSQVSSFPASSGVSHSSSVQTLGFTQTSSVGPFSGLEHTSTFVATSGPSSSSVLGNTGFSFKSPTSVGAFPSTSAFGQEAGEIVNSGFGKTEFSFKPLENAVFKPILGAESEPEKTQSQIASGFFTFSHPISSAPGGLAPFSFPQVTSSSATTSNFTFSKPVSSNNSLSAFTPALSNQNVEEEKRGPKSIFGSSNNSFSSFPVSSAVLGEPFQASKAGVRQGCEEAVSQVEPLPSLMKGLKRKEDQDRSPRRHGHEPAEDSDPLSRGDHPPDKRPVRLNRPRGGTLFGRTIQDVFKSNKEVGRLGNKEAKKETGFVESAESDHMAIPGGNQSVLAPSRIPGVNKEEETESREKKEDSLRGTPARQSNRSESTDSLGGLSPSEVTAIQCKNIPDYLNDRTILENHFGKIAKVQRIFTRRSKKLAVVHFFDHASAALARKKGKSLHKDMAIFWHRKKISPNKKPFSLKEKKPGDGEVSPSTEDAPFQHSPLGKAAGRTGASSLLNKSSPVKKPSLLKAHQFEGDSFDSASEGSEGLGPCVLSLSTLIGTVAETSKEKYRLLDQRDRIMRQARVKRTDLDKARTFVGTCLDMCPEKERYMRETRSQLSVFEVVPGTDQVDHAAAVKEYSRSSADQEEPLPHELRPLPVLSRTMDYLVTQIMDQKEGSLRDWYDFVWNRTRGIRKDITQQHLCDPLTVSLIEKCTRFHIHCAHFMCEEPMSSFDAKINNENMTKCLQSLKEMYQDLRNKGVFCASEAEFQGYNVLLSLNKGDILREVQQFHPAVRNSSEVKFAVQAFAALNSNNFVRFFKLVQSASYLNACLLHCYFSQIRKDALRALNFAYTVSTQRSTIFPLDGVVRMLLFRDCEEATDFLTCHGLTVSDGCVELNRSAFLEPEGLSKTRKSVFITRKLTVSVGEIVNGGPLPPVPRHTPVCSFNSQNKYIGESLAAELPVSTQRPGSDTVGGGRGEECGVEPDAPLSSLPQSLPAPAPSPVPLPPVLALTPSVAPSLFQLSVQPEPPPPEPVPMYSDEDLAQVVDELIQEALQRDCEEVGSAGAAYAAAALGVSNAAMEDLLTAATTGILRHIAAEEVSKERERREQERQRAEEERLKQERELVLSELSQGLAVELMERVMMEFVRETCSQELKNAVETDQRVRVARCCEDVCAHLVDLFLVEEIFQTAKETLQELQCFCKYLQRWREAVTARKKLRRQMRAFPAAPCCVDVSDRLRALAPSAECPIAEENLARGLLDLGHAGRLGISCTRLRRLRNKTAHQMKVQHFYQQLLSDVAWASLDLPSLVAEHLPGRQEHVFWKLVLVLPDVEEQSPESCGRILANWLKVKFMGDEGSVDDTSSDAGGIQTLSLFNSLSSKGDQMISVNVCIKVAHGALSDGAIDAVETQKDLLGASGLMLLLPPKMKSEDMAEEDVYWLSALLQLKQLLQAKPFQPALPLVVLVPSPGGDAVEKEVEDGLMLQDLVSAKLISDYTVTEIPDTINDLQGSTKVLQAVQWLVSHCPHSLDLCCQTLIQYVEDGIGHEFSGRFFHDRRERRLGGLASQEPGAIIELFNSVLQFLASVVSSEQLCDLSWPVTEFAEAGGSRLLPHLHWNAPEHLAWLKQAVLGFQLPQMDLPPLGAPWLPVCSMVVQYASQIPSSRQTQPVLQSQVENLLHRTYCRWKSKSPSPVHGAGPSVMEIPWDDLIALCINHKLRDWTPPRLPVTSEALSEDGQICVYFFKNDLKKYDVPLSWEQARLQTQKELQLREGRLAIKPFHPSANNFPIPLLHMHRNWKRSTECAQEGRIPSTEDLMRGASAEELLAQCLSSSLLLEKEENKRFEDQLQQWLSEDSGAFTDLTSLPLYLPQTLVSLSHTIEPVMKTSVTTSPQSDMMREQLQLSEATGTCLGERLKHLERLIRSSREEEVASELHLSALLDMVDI"}, "source": "the supplement of paper PMC6411743", "compound": "Nc1nc2c(ncn2[C@@H]2O[C@H](COP(=O)(O)OP(=O)(O)OP(=O)(O)O)[C@@H](O)[C@H]2O)c(=O)[nH]1 [guanosine triphosphate]", "test": "NP40-soluble protein abundance relative to vehicle (solubility fold change) (ratio); higher = more soluble protein in presence of GTP", "description": "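Solubility proteome profiling in Jurkat crude lysate. Lysate was treated with Mg-GTP (0.1-10 mM) for 10 min at room temperature and 3 min at 37 °C, then solubilised with 0.8% NP40 and benzonase, followed by ultracentrifugation. Proteins were quantified by TMT10 LC-MS/MS; the value is the NP40-soluble abundance relative to the NP40-processed vehicle, from 3 independent experiments.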", "note": "± gives the standard deviation of the averaged measurements. Some of the results follow.", "data": [{"target": "UniProt O60568 and related entries", "values": [{"measurement": "NP40-soluble protein abundance", "setting": "concentration: 0.1mM", "result": "1.11 ± 0.13"}, {"measurement": "NP40-soluble protein abundance", "setting": "concentration: 0.5mM", "result": "1.09 ± 0.021"}, {"measurement": "NP40-soluble protein abundance", "setting": "concentration: 1mM", "result": "0.992 ± 0.034"}, {"measurement": "NP40-soluble protein abundance", "setting": "concentration: 2mM", "result": "1.01 ± 0.012"}, {"measurement": "NP40-soluble protein abundance", "setting": "concentration: 4mM", "result": "1.03 ± 0.011"}, {"measurement": "NP40-soluble protein abundance", "setting": "concentration: 6mM", "result": "1.04 ± 0.032"}, {"measurement": "NP40-soluble protein abundance", "setting": "concentration: 8mM", "result": "1.01 ± 0.077"}, {"measurement": "NP40-soluble protein abundance", "setting": "concentration: 10mM", "result": "1.02 ± 0.036"}]}, {"target": "POLR3A (UniProt O14802)", "values": [{"measurement": "NP40-soluble protein abundance", "setting": "concentration: 0.1mM", "result": "1.09 ± 0.14"}, {"measurement": "NP40-soluble protein abundance", "setting": "concentration: 0.5mM", "result": "1.11 ± 0.17"}, {"measurement": "NP40-soluble protein abundance", "setting": "concentration: 1mM", "result": "1.09 ± 0.14"}, {"measurement": "NP40-soluble protein abundance", "setting": "concentration: 2mM", "result": "1.16 ± 0.24"}, {"measurement": "NP40-soluble protein abundance", "setting": "concentration: 4mM", "result": "1.15 ± 0.21"}, {"measurement": "NP40-soluble protein abundance", "setting": "concentration: 6mM", "result": "1.12 ± 0.21"}, {"measurement": "NP40-soluble protein abundance", "setting": "concentration: 8mM", "result": "1.09 ± 0.18"}, {"measurement": "NP40-soluble protein abundance", "setting": "concentration: 10mM", "result": "1.05 ± 0.2"}]}, {"target": "UniProt O15391", "values": [{"measurement": "NP40-soluble protein abundance", "setting": "concentration: 0.1mM", "result": "0.952 ± 0.025"}, {"measurement": "NP40-soluble protein abundance", "setting": "concentration: 0.5mM", "result": "1.01 ± 0.079"}, {"measurement": "NP40-soluble protein abundance", "setting": "concentration: 1mM", "result": "1.02 ± 0.058"}, {"measurement": "NP40-soluble protein abundance", "setting": "concentration: 2mM", "result": "1.02 ± 0.078"}, {"measurement": "NP40-soluble protein abundance", "setting": "concentration: 4mM", "result": "0.991 ± 0.064"}, {"measurement": "NP40-soluble protein abundance", "setting": "concentration: 6mM", "result": "0.991 ± 0.099"}, {"measurement": "NP40-soluble protein abundance", "setting": "concentration: 8mM", "result": "1.02 ± 0.032"}, {"measurement": "NP40-soluble protein abundance", "setting": "concentration: 10mM", "result": "1.03 ± 0.044"}]}, {"target": "UniProt O60524 and related entries", "values": [{"measurement": "NP40-soluble protein abundance", "setting": "concentration: 0.1mM", "result": "0.953 ± 0.02"}, {"measurement": "NP40-soluble protein abundance", "setting": "concentration: 0.5mM", "result": "0.949 ± 0.069"}, {"measurement": "NP40-soluble protein abundance", "setting": "concentration: 1mM", "result": "0.955 ± 0.075"}, {"measurement": "NP40-soluble protein abundance", "setting": "concentration: 2mM", "result": "1.06 ± 0.065"}, {"measurement": "NP40-soluble protein abundance", "setting": "concentration: 4mM", "result": "1.08 ± 0.011"}, {"measurement": "NP40-soluble protein abundance", "setting": "concentration: 6mM", "result": "1.15 ± 0.072"}, {"measurement": "NP40-soluble protein abundance", "setting": "concentration: 8mM", "result": "1.16 ± 0.05"}, {"measurement": "NP40-soluble protein abundance", "setting": "concentration: 10mM", "result": "1.26 ± 0.053"}]}, {"target": "MCM3AP (UniProt O60318)", "values": [{"measurement": "NP40-soluble protein abundance", "setting": "concentration: 0.1mM", "result": "0.949 ± 0.13"}, {"measurement": "NP40-soluble protein abundance", "setting": "concentration: 0.5mM", "result": "0.98 ± 0.17"}, {"measurement": "NP40-soluble protein abundance", "setting": "concentration: 1mM", "result": "1.06 ± 0.025"}, {"measurement": "NP40-soluble protein abundance", "setting": "concentration: 2mM", "result": "1.14 ± 0.1"}, {"measurement": "NP40-soluble protein abundance", "setting": "concentration: 4mM", "result": "1.191 ± 0.011"}, {"measurement": "NP40-soluble protein abundance", "setting": "concentration: 6mM", "result": "1.14 ± 0.062"}, {"measurement": "NP40-soluble protein abundance", "setting": "concentration: 8mM", "result": "1.31 ± 0.075"}, {"measurement": "NP40-soluble protein abundance", "setting": "concentration: 10mM", "result": "1.25 ± 0.051"}]}]}
